Experimental findings from patent US7105306 are described below.

By UniProt entry, the sequences of proteins in these tests, tags left out. Where a name states a change or a piece, a line headed by the entry shows the natural chain unless it says otherwise. Residues count along the entry.
UniProt P01241, residues 27-217: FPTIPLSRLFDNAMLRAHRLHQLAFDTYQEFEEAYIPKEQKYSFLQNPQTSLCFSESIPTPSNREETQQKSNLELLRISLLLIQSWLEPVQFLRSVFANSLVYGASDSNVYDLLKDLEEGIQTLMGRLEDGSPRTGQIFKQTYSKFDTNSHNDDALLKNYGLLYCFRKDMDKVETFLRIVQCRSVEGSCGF
UniProt P23284: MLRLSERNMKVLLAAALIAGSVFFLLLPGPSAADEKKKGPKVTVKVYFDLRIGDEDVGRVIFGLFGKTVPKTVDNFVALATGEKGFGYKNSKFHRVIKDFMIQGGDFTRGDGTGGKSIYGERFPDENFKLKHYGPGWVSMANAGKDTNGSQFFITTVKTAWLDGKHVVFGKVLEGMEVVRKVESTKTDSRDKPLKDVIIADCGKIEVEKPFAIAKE

No constants are given. Whether binding was seen depends on the method and setting. Some entries that bind do so weakly or less than the wild type.

The assay concerns the target growth hormone (GH) (human) (UniProt P01241). Kind of assay: direct interaction of purified proteins; method for GH not detailed.

For the substance “His-tagged cyclophilin B (CypB), recombinant, purified from Drosophila S2 cells (from UniProt P23284 34-216) (enzyme)”, the binding result is “binds”.
